A short description of this data set: Steroid levels in plasma and urine of estriol cream treated monkeys. To be noted: ovariectomized monkeys treated daily with 0.3% estriol topical cream.

`C[C@]12CC[C@@H]3c4ccc(O)cc4CC[C@H]3[C@@H]1C[C@@H](O)[C@@H]2O` [Estriol]: the “Estradiol (E2) in plasma” value came to 21 ± 2 pg/mL and the Progesterone in plasma is 0.7 ± 0.3 ng/mL.
